Laboratory results: PubChem BioAssay AID445 (National Center for Advancing Translational Sciences (NCATS), 2006)
The list shows a part of the results. Further columns of the screen follow, without active or inactive calls. Compounds called inactive in the main read-out are mostly missing here. Words in brackets tell the shape of the fitted curve; partial curves, single points and poor fits give uncertain potencies.

Assay: IkB Signaling
Details: ABC-DLBCL IkBa-CBG/CBR dual luciferase ratio (green luciferase fused to IkBa over red control in OCI-Ly3 lymphoma cells), 4 h; measured here: control luc red channel unless noted
Summary of the method: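 In this assay, an IκBα–CBG68 fusion accumulates when IKK-driven degradation is blocked; native CBR normalizes for cell number. OCI-Ly3 cells were treated 4 h with compound and doxycycline, then green and red light read after Chroma-Glo addition.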
With `CCc1ccc(OCC(=O)Nc2ccc(Cl)c(-c3nc4ncccc4o3)c2)cc1` the AC50 was 12.6 µM [falling, partial curve]. In the case of `CCOc1ccc(S(=O)(=O)NCC(c2cccs2)S(=O)(=O)c2ccc(C)cc2)cc1` (stereo not drawn), the AC50 is reported as 20 µM [falling, partial curve, poor fit]. For `Cc1ccc(C)c(N(C)S(=O)(=O)c2ccc3[nH]cc(C(=O)NC4CCCC4)c(=O)c3c2)c1`, the AC50 was 25.1 µM [falling, partial curve]. With `CC(C)(C)NC(=O)CCSc1nc(-c2ccc3c(c2)OCO3)cc(C(F)(F)F)n1` the AC50 was 31.6 µM [falling, single point]. With `COc1cccc2sc(N(Cc3cccnc3)C(=O)c3ccc(S(=O)(=O)N(C)C)cc3)nc12` the AC50 was 39.8 µM [falling, single point]. In the case of `COc1ccccc1CNC(=O)c1cc2cc(S(=O)(=O)N3CCCCC3)ccc2n1C`, the AC50 is reported as 3.16 µM [falling, partial curve]. In the case of `COc1cc2c(cc1OC)C(c1cc(OC)c(O)c(OC)c1)CC(=O)N2` (stereo not drawn), the AC50 is reported as 31.6 µM [rising, single point]. In the case of `Cc1ccc(-c2c(C)n3c4c(=O)n(C)c(=O)n(C)c4nc3n2CCCO)cc1`, the AC50 is reported as 20 µM [falling, partial curve]. With `O=C(CCn1cnnn1)Nc1ccccc1` the AC50 was 0.631 µM [falling, full curve, poor fit]. With `COc1cc(-c2csc(C)n2)ccc1O` the AC50 was 2 µM [rising, partial curve] [measured here: IkB-luc green channel]. In the case of `CCOc1ccc(NC(=O)C2CCCN(S(=O)(=O)c3ccc(Br)s3)C2)cc1` (stereo not drawn), the AC50 is reported as 0.1 µM [falling, full curve]. With `CC(=O)N1c2c(cc(Br)cc2S(=O)(=O)Nc2ccccc2C)CC1C` (stereo not drawn) the AC50 was 15.8 µM [falling, partial curve]. With `COc1ccc(C2SCCN2S(=O)(=O)c2ccccc2)cc1OC` (stereo not drawn) the AC50 was 39.8 µM [falling, single point]. In the case of `CCOc1cc(Br)c(C2C(C(=O)OC)=C(C)NC3=C2C(=O)c2ccccc23)cc1OCC` (stereo not drawn), the AC50 is reported as 15.8 µM [falling, partial curve]. In the case of `O=C(Nc1cccc(C(F)(F)F)c1)c1ccc(F)c(S(=O)(=O)N2CCc3ccccc3C2)c1`, the AC50 is reported as 0.794 µM [falling, full curve]. For `Cc1nn(Cc2ccccc2)c(Cl)c1C(=O)OCc1nnc(-c2ccccc2)o1`, the AC50 was 25.1 µM [falling, partial curve]. In the case of `CC(=O)N1CCCc2cc(S(=O)(=O)N3CCC(N(C)C(C)C)CC3)ccc21`, the AC50 is reported as 1.26 µM [rising, full curve, poor fit]. With `Cc1cc(Nc2cccc(O)c2)c2cccc(Br)c2n1` the AC50 was 39.8 µM [falling, single point]. For `CCOc1ccc(OCC(=O)c2c(O)c3ccccc3oc2=O)cc1`, the AC50 was 1 µM [falling, full curve]. For `CCc1ccc(S(=O)(=O)c2cn(CC(=O)Nc3cccc(C)c3)c3ccc(Cl)cc3c2=O)cc1`, the AC50 was 1.58 µM [rising, partial curve]. For `COc1nnc(-c2ccc(N3CCCCC3)c(NC(=O)c3ccc(Cl)cc3)c2)c2ccccc12`, the AC50 was 10 µM [falling, partial curve]. In the case of `CCc1cc(=O)[nH]c(SCc2nc(-c3ccccc3C)no2)n1`, the AC50 is reported as 39.8 µM [falling, single point]. For `COc1ccc(OC)c(NC(=O)c2nc(SCc3ccc(F)cc3)ncc2Cl)c1`, the AC50 was 25.1 µM [falling, single point]. In the case of `O=C(NCCc1csc(-c2ccc(F)cc2)n1)C(=O)Nc1ccc(Cl)cc1`, the AC50 is reported as 1 µM [falling, full curve]. For `Cc1c(C(=O)Nc2cccc(C(F)(F)F)c2)oc2ccc(S(=O)(=O)N(C)C3CCCCC3)cc12`, the AC50 was 12.6 µM [falling, partial curve]. With `O=C(CC1C(=O)N(c2ccccc2)C(=O)N1CCc1cccs1)Nc1ccc(Cl)cc1` (stereo not drawn) the AC50 was 20 µM [falling, single point]. For `CCNC(=O)c1ccc(-n2c(-c3ccccc3)cc3c2CCCCC3)cc1`, the AC50 was 7.94 µM [falling, partial curve]. With `COc1ccc(OC)c(NC(=O)[C@H](Cc2ccccc2)N2Cc3ccccc3C2=O)c1` the AC50 was 39.8 µM [falling, single point]. For `CCOC(=O)CNc1ncnc2c1nnn2C`, the AC50 was 3.16 µM [rising, full curve, poor fit]. With `COc1cccc(-c2cc(C(=O)Nc3ccc(F)cc3)[nH]n2)c1` the AC50 was 0.02 µM [falling, full curve]. With `CCC(=O)N1c2ccccc2CC1C(=O)NCCc1ccc(OC)cc1OC` (stereo not drawn) the AC50 was 7.94 µM [falling, full curve, poor fit]. With `CCc1cccc(-n2c(=O)c3cccnc3n2CC(=O)Nc2ccccc2C(=O)OC)c1` the AC50 was 6.31 µM [falling, partial curve]. For `Cc1ccc2oc(C(=O)Nc3sc4c(c3C(=O)NCc3ccccc3)CCCC4)cc(=O)c2c1`, the AC50 was 1.26 µM [rising, full curve]. In the case of `CCOc1ccc(NC(=O)c2ccc3nc(Cc4ccccc4)oc3c2)cc1`, the AC50 is reported as 7.94 µM [falling, partial curve]. With `Cc1ccccc1C(=O)Nc1ccc(Cl)cn1` the AC50 was 10 µM [falling, partial curve]. In the case of `Cc1ccc(-n2nnnc2SCC(=O)N2CCc3ccccc3C2)c(C)c1`, the AC50 is reported as 15.8 µM [falling, partial curve]. With `CC1C(=O)N2CCCc3cc(S(=O)(=O)Nc4ccc(Br)cc4F)cc1c32` (stereo not drawn) the AC50 was 6.31 µM [falling, partial curve]. With `CSc1ccc2c(c1)[C@H](N1CCN(C)CC1)Cc1ccccc1S2` the AC50 was 31.6 µM [falling, partial curve]. For `O=C(Cn1c(=O)oc2cc(S(=O)(=O)NCc3ccccc3)ccc21)N(CCO)Cc1ccccc1`, the AC50 was 10 µM [falling, partial curve]. In the case of `Cc1ccc(Cn2c3ccccc3c3cnn(CC(=O)N4CCCCCC4)c(=O)c32)cc1`, the AC50 is reported as 25.1 µM [falling, single point]. For `COC(=O)c1cc2oc(C)cc2n1CC(=O)Nc1ccc(OC)c(OC)c1`, the AC50 was 0.251 µM [rising, full curve]. In the case of `COC(=O)c1ccc(NC(=O)CSc2nccn2Cc2ccc(Cl)cc2)cc1`, the AC50 is reported as 39.8 µM [falling, single point]. For `CCOc1ccc(-n2c(=O)c3c(C)c(C)sc3n(Cc3c(F)cccc3Cl)c2=O)cc1`, the AC50 was 0.2 µM [rising, full curve, poor fit]. In the case of `Cc1cc(O)c(C(c2ccccc2)N2CCN(c3ccccc3F)CC2)c(=O)n1Cc1ccco1` (stereo not drawn), the AC50 is reported as 39.8 µM [falling, single point]. In the case of `CCOc1ccccc1-n1nnnc1SCc1nc2ccccc2s1`, the AC50 is reported as 12.6 µM [falling, partial curve]. In the case of `CCC(=O)N1CCc2cc(Br)cc(S(=O)(=O)CCC(=O)NCc3ccc(C)cc3)c21`, the AC50 is reported as 15.8 µM [falling, partial curve]. With `COc1ccc(CNC(=O)C(=O)Nc2ccccc2OC)cc1` the AC50 was 5.01 µM [falling, partial curve]. In the case of `COc1ccc(CCN2C(=O)c3[nH]nc(-c4ccccc4O)c3C2c2ccc(C)cc2)cc1OC` (stereo not drawn), the AC50 is reported as 10 µM [falling, partial curve]. In the case of `CCOc1ccccc1N(C)C(=O)c1cc(S(=O)(=O)NCc2ccc(C)cc2)ccc1F`, the AC50 is reported as 20 µM [falling, single point]. For `CCc1cccc(NC(=O)Cn2c(=O)n(Cc3ccccc3)c(=O)c3c(C)c(C(=O)N(C)C)sc32)c1`, the AC50 was 39.8 µM [falling, single point]. For `CCc1nn2c(=O)cc(COC(=O)c3cccc(NC(=O)COc4ccccc4F)c3)nc2s1`, the AC50 was 15.8 µM [falling, partial curve]. With `N#CC1=C(O)CCCn2c1nc1ccccc1c2=O` the AC50 was 12.6 µM [falling, partial curve]. With `CCC(=O)C1=C(c2cccc([N+](=O)[O-])c2)N(C(=O)CC)n2c(nnc2C2CCCCC2)S1` the AC50 was 6.31 µM [falling, partial curve]. In the case of `COc1ccc(-c2nc3ccccc3o2)cc1NC(=O)COc1c(C)cc(Cl)cc1Cl`, the AC50 is reported as 0.126 µM [rising, full curve]. With `Cc1cccc(-c2nc3c4ccccc4n(CC(=O)Nc4cccc(F)c4)c(=O)n3n2)c1` the AC50 was 5.01 µM [rising, full curve, poor fit]. In the case of `CCOC(=O)C1CCN(c2csc3ccc(C)cc3c2=O)CC1`, the AC50 is reported as 25.1 µM [falling, partial curve]. In the case of `CC(C)(C)OC(=O)N1CCC(c2c(C(=O)N3CCN(c4ccccc4F)CC3)cnn2C(C)(C)C)CC1`, the AC50 is reported as 31.6 µM [falling, partial curve, poor fit]. With `CCOc1ccc2[nH]c(=O)c(CN(Cc3cccnc3)C(=O)Nc3ccccc3OC)cc2c1` the AC50 was 20 µM [falling, partial curve]. In the case of `O=C(CCC1CCCC1)c1c(O)c2ccccc2oc1=O`, the AC50 is reported as 0.631 µM [falling, full curve]. With `CCc1ccc2oc(C(=O)N(Cc3cccc(Cl)c3)Cc3ccco3)c(C)c2c1` the AC50 was 39.8 µM [falling, single point]. For `O=C(Cn1c2ncccc2c(=O)n1-c1ccccc1)Nc1cccc(C(F)(F)F)c1`, the AC50 was 39.8 µM [falling, single point]. In the case of `COc1ccc(CNC(=O)c2ccc(NC(=O)N3CCSc4ncccc43)cc2)c(OC)c1`, the AC50 is reported as 12.6 µM [falling, single point]. With `CCOc1ccc2oc(=O)cc(CN3CCN(C(=O)c4cccc(Cl)c4)CC3)c2c1` the AC50 was 20 µM [falling, single point].
